These are yes or no findings as the source states them, for the method shown. Binding seen in cells or lysates may run through a third protein. Some binding calls cover weakened binding; strength is not graded here. Sequences can lack the tags named with a protein.
T1: Protein tyrosine phosphatase 4A1 (PTP4A1), Flag-tagged (UniProt Q93096)
T1 sequence: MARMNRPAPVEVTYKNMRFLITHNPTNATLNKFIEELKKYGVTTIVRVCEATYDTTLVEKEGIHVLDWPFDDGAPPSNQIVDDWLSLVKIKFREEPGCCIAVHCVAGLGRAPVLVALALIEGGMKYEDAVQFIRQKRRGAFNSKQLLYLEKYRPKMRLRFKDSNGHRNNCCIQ

Chains of the proteins cited; added tags and fusions are not shown.
UniProt P14618: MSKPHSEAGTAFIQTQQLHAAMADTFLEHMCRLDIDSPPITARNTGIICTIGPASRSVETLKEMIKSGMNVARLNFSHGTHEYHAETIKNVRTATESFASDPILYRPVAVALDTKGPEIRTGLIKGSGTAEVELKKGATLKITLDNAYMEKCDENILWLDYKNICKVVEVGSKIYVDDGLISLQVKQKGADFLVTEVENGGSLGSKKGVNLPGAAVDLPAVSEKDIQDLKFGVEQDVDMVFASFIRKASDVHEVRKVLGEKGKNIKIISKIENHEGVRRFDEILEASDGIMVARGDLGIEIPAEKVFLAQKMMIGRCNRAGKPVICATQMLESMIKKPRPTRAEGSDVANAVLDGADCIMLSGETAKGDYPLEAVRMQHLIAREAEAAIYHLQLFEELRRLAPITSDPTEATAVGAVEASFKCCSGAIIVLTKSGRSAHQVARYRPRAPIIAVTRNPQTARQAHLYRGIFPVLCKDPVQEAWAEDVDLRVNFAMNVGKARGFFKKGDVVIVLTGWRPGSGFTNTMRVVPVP


Biological target: T1, Protein tyrosine phosphatase 4A1 (PTP4A1), Flag-tagged
Test: co-IP; cells transfected with HA-tagged PKM2 or ACO2 and Flag-tagged PTP4A1; lysed in BC300 buffer with sonication; antibody overnight at 4 C, protein A/G agarose beads 3 h; anti-Flag or anti-HA antibodies; western blot

Molecule	binding
pyruvate kinase isoenzyme M2 (PKM2), HA-tagged (from UniProt P14618 1-531)	binds
aconitase 2 (ACO2), HA-tagged (enzyme, UniProt Q99798 28-780) QRAKVAMSHFEPNEYIHYDLLEKNINIVRKRLNRPLTLSEKIVYGHLDDPASQEIERGKSYLRLRPDRVAMQDATAQMAMLQFISSGLSKVAVPSTIHCDHLIEAQVGGEKDLRRAKDINQEVYNFLATAGAKYGVGFWKPGSGIIHQIILENYAYPGVLLIGTDSHTPNGGGLGGICIGVGGADAVDVMAGIPWELKCPKVIGVKLTGSLSGWSSPKDVILKVAGILTVKGGTGAIVEYHGPGVDSISCTGMATICNMGAEIGATTSVFPYNHRMKKYLSKTGREDIANLADEFKDHLVPDPGCHYDQLIEINLSELKPHINGPFTPDLAHPVAEVGKVAEKEGWPLDIRVGLIGSCTNSSYEDMGRSAAVAKQALAHGLKCKSQFTITPGSEQIRATIERDGYAQILRDLGGIVLANACGPCIGQWDRKDIKKGEKNTIVTSYNRNFTGRNDANPETHAFVTSPEIVTALAIAGTLKFNPETDYLTGTDGKKFRLEAPDADELPKGEFDPGQDTYQHPPKDSSGQHVDVSPTSQRLQLLEPFDKWDGKDLEDLQILIKVKGKCTTDHISAAGPWLKFRGHLDNISNNLLIGAINIENGKANSVRNAVTQEFGPVPDTARYYKKHGIRWVVIGDENYGEGSSREHAALEPRHLGGRAIITKSFARIHETNLKKQGLLPLTFADPADYNKIHPVDKLTIQGLKDFTPGKPLKCIIKHPNGTQETILLNHTFNETQIEWFRAGSALNRMKELQQ	binds

Source: publication PMC10541904
